Source: PubChem BioAssay AID1159578 (Peter MacCallum Cancer Centre, 2015)
Test: 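Genome-wide hunt for genes controlling movement of lymphatic endothelial cells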 (primary screen). Cells: human lymphatic endothelial cells. Reagent: siRNA pool against human genes, 40 nM. Duration: 48 h after transfection. Detection: 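Cells stained with dye and imaged after a scratch; covered wound area and nuclei counted, duplicates averaged, migration set against mock wells and turned into a robust z-score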. Reading the numbers: migration robust z-score: higher = faster migration into the scratch; migration relative to mock: higher = more scratch area covered than mock; nuclei per well: higher = more cells in the well. Hit rule: 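Pools averaging fewer than 3300 nuclei are never called; remaining pools count as changed when migration robust z lies outside -2 to 2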. Calls: active = migration changed; inactive = no migration change, or too few cells.
This is one part, drawn at random, of about 18,000 reagents tested. About 1,030 of all reagents (5.7%) were called active. 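Inactive calls also include pools with fewer than 3300 nuclei, whose migration was not assessed.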 Raw values vary from plate to plate and are shown uncorrected.

gene	migration robust z-score	migration class with cell-count check	migration relative to mock	nuclei per well, duplicate mean	outcome
CSAD	-1.38	migration z between -2 and 2; enough cells	0.52	6354	inactive
ZBTB16	-4.93	under 3300 nuclei; migration not judged	-0.15	2154	inactive
SSR3	1.34	migration z between -2 and 2; enough cells	1.23	6292	inactive
FBXL14	-0.1	migration z between -2 and 2; enough cells	0.78	4096	inactive
ATR	0.1	migration z between -2 and 2; enough cells	0.82	4346	inactive
CD74	-0.08	migration z between -2 and 2; enough cells	0.79	5769	inactive
FERD3L	-1.66	migration z between -2 and 2; enough cells	0.45	5038	inactive
STAT4	0.02	migration z between -2 and 2; enough cells	0.81	5853	inactive
KRTDAP	-0.85	migration z between -2 and 2; enough cells	0.67	4202	inactive
ZFAND2A	0.76	migration z between -2 and 2; enough cells	1.08	4731	inactive
NAV1	0.83	migration z between -2 and 2; enough cells	0.96	5562	inactive
STAMBPL1	0.05	migration z between -2 and 2; enough cells	0.82	4538	inactive
GUCY2C	-0.39	migration z between -2 and 2; enough cells	0.73	5474	inactive
PDHA1	0.1	migration z between -2 and 2; enough cells	0.82	6008	inactive
HEXB	-0.1	migration z between -2 and 2; enough cells	0.78	4457	inactive
RO60	-0.31	migration z between -2 and 2; enough cells	0.8	5422	inactive
DEFB130A	-0.18	migration z between -2 and 2; enough cells	0.84	6662	inactive
IL1RAPL1	-1.14	migration z between -2 and 2; enough cells	0.58	3855	inactive
CCL4L2	0.05	migration z between -2 and 2; enough cells	0.9	5333	inactive

Sorted by “migration robust z-score” (descending): 7 of the entries above
gene	migration robust z-score	migration class with cell-count check	migration relative to mock	nuclei per well, duplicate mean	outcome
NAV1	0.83	migration z between -2 and 2; enough cells	0.96	5562	inactive
ZFAND2A	0.76	migration z between -2 and 2; enough cells	1.08	4731	inactive
PDHA1	0.1	migration z between -2 and 2; enough cells	0.82	6008	inactive
STAMBPL1	0.05	migration z between -2 and 2; enough cells	0.82	4538	inactive
STAT4	0.02	migration z between -2 and 2; enough cells	0.81	5853	inactive
GUCY2C	-0.39	migration z between -2 and 2; enough cells	0.73	5474	inactive
KRTDAP	-0.85	migration z between -2 and 2; enough cells	0.67	4202	inactive

Next entries:
gene	migration robust z-score	migration class with cell-count check	migration relative to mock	nuclei per well, duplicate mean	outcome
PRTFDC1	0.26	migration z between -2 and 2; enough cells	0.86	5966	inactive
PLD5	1.94	migration z between -2 and 2; enough cells	1.18	5562	inactive
TMPRSS2	0.83	migration z between -2 and 2; enough cells	0.97	5499	inactive
PPP1R12B	-0.08	migration z between -2 and 2; enough cells	0.79	4045	inactive
LMTK3	-1.53	migration z between -2 and 2; enough cells	0.51	4868	inactive
BAGE	-1.59	migration z between -2 and 2; enough cells	0.47	6256	inactive
DCAF11	1.19	migration z between -2 and 2; enough cells	1.2	6012	inactive
DEXI	-1.26	migration z between -2 and 2; enough cells	0.56	5861	inactive
TANGO2	-4.13	under 3300 nuclei; migration not judged	-0.16	1326	inactive
LSM7	0.46	migration z between -2 and 2; enough cells	1	6708	inactive
RIOX2	-0.95	migration z between -2 and 2; enough cells	0.64	5261	inactive
NDUFA9	0.68	migration z between -2 and 2; enough cells	0.94	6860	inactive
ATPSCKMT	-1.38	migration z between -2 and 2; enough cells	0.53	5761	inactive
PLK1	-2.98	under 3300 nuclei; migration not judged	0.23	1036	inactive
TIMCC	0.62	migration z between -2 and 2; enough cells	1.04	4542	inactive
SPEG	-0.26	migration z between -2 and 2; enough cells	0.76	4134	inactive
AP1G1	1.04	migration z between -2 and 2; enough cells	1.15	7382	inactive
KATNBL1	-0.74	migration z between -2 and 2; enough cells	0.69	5778	inactive
EMC6	1.16	migration z between -2 and 2; enough cells	1.19	5772	inactive
MCF2L2	0.88	migration z between -2 and 2; enough cells	0.98	6197	inactive
